The values that follow come from patent US20060286584A1.

The target in test [1] is Sos-Wts bait (human Sos fused to N-terminal fragment of Wts, 1-608) (human; Drosophila) (UniProt Q07889+Q9VA38). The experiment in a line: yeast two-hybrid (Sos recruitment / CytoTrap), Sos-Wts bait.
Test [2] concerns the target T1, V5-tagged Wts (Warts) (Drosophila) (UniProt Q9VA38).
T1 sequence: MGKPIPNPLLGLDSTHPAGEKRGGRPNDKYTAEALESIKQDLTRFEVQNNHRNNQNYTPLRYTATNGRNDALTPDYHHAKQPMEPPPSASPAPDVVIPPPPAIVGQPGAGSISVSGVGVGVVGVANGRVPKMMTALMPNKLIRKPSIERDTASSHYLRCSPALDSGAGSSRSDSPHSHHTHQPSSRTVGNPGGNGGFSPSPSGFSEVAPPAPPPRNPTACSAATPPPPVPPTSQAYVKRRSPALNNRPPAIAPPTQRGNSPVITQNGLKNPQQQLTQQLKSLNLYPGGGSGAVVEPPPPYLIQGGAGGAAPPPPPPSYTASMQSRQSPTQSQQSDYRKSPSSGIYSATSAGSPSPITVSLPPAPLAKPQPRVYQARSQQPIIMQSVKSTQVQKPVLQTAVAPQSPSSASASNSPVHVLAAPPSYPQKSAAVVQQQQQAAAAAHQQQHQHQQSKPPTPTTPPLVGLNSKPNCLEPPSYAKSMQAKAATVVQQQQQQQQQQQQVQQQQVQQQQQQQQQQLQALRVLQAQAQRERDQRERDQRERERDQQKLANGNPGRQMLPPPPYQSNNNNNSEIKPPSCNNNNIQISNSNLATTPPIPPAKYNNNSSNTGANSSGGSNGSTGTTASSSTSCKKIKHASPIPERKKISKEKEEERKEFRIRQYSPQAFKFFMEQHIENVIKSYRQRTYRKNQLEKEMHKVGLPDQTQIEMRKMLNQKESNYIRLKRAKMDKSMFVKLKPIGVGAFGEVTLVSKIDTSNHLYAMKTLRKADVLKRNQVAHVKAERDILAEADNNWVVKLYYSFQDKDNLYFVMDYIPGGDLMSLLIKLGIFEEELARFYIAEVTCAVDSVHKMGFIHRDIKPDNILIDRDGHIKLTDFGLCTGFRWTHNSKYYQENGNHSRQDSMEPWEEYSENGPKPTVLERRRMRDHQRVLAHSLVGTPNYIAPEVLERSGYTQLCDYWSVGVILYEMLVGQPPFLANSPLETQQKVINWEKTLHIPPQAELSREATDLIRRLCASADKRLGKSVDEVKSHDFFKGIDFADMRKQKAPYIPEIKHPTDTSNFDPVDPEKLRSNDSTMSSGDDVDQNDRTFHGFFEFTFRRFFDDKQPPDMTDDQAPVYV
The experiment in a line: co-immunoprecipitation from S2 cells.

For test [3], the target named is T1, V5-tagged Wts (Warts) (Drosophila). The experiment in a line: co-immunoprecipitation from S2 cells (anti-HA IP, anti-V5 blot).
For test [4] the target is unchanged. The experiment in a line: summary of yeast two-hybrid and co-immunoprecipitation from S2 cells.

These are yes or no findings as the source states them, for the method shown. For part of these data: In cells and extracts the contact can be indirect. Some results given as binding are weak or reduced against the parent protein; the word gives no strength. Tags and fused reporters may be left off the sequences shown.

B1: Yki clone 186-418 (myristylation-signal prey fusion) (protein)
chain: AAANNPNANPSSQQQPAGPTFPENSAQEFPSGAPASSAIDLDAMNTCMSQDIPMSMQTVHKKQRSYDVISPIQLNRQLGALPPGWEQAKTNDGQIYYLNHTTKSTQWEDPRIQYRQQQQILMAERIKQNDVLQTTKQTTTSTIANNLGPLPDGWEQAVTESGDLYFINHIDRTTSWNDPRMQSGLSVLDCPDNLVSSLQIEDNLCSNLFNDAQAIVNPPSSHKPDDLEWYKIN
modifications: myristylation signal
Regarding B1, the binding entry in test [1] was “binds”.

B2: Yki clone 18-418 (myristylation-signal prey fusion) (protein)
chain: TISAFYMLTTMSASSNTNSLIEKEIDDEDMLSPIKSNNLVVRVNQDTDDNLQALFDSVLNPGDAKRPLQLPLRMRKLPNSFFTPPAPSHSRANSADSTYDAGSQSSINIGNKASIVQQPDGQSPIAAIPQLQIQPSPQHSRLAIHHSRARSSPASLQQNYNVRARSDAAAANNPNANPSSQQQPAGPTFPENSAQEFPSGAPASSAIDLDAMNTCMSQDIPMSMQTVHKKQRSYDVISPIQLNRQLGALPPGWEQAKTNDGQIYYLNHTTKSTQWEDPRIQYRQQQQILMAERIKQNDVLQTTKQTTTSTIANNLGPLPDGWEQAVTESGDLYFINHIDRTTSWNDPRMQSGLSVLDCPDNLVSSLQIEDNLCSNLFNDAQAIVNPPSSHKPDDLEWYKIN
modifications: myristylation signal
Consider B2, for which the binding result in test [1] is recorded as “binds”.

B3: Yki clone 229-418 (myristylation-signal prey fusion) (protein)
chain: MNTCMSQDIPMSMQTVHKKQRSYDVISPIQLNRQLGALPPGWEQAKTNDGQIYYLNHTTKSTQWEDPRIQYRQQQQILMAERIKQNDVLQTTKQTTTSTIANNLGPLPDGWEQAVTESGDLYFINHIDRTTSWNDPRMQSGLSVLDCPDNLVSSLQIEDNLCSNLFNDAQAIVNPPSSHKPDDLEWYKIN
modifications: myristylation signal
B3: the binding result in test [1] is reported as “binds”.

B4: HA-tagged wildtype Yki (Yorkie) (protein)
chain: MCACLIAKIILCSFRLYTISAFYMLTTMSASSNTNSLIEKEIDDEDMLSPIKSNNLVVRVNQDTDDNLQALFDSVLNPGDAKRPLQLPLRMRKLPNSFFTPPAPSHSRANSADSTYDAGSQSSINIGNKASIVQQPDGQSPIAAIPQLQIQPSPQHSRLAIHHSRARSSPASLQQNYNVRARSDAAAANNPNANPSSQQQPAGPTFPENSAQEFPSGAPASSAIDLDAMNTCMSQDIPMSMQTVHKKQRSYDVISPIQLNRQLGALPPGWEQAKTNDGQIYYLNHTTKSTQWEDPRIQYRQQQQILMAERIKQNDVLQTTKQTTTSTIANNLGPLPDGWEQAVTESGDLYFINHIDRTTSWNDPRMQSGLSVLDCPDNLVSSLQIEDNLCSNLFNDAQAIVNPPSSHKPDDLEWYKINYPYDVPDYA
Regarding B4, the binding result in test [2], in test [3] and in test [4] was “binds” in each case.
